# The campaign covered roughly 53,000 sequences. About 3,700 (7%) were called active.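 The calls were made as follows: active = gene knockdowns whose robust z-score for IL-1 alpha signal is at least 2 or at most -2, so actives lie on both sides; inactive = the rest.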 The list shows a part of the results.
# Assay: Components of the Cytosolic LPS Sensing Pathway: Gene Identification via Genome-wide siRNA Screen;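 also: robust z of the log signal after scaling to non-targeting control siRNA wells of the plate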
# Conditions: RAW264.7 macrophages, IL-1a HTRF, actives lie on both sides, screened at 100 nM (by protocol), cells primed 5 h with Pam3CSK4 first
# In short: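 Three distinct siRNAs per gene were tested singly at 100 nM in RAW264.7 macrophages. Following Pam3CSK4 priming and 24 hour LipidA transfection, IL-1a secretion was read by HTRF.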
row,Sequence,z-score
1,GCAAAAAUGGUUCUCCAUATT against Plxnc1,inactive: 0.0474
2,GGAAUUUGUAUGGUCUCUGTT against Cntln,inactive: -0.0324
3,GGGUUGAUUUGGUGUUUUATT against Usp46,inactive: 0.673
4,GCAAGUUGAGAACAUCAAGTT against Diaph1,inactive: 0.955
5,CGCGUUCGGUUAUGUAAAUTT against Wnt1,inactive: -0.134
6,CCCAGGCCACUGAUCUAAGTT against Chrm5,inactive: 0.775
7,CCUGUAAAGUGUGAUAUUATT against Acot12,inactive: 0.508
8,GGUGAACGCAUCCGCUAGUTT against Fscn1,inactive: 0.459
9,GGCAAGGAUAAGACAGUAGTT against Hs3st3b1,inactive: -0.354
10,GGGCUAAGUGUUGAAUUUATT against Csnk1e,inactive: 0.268
11,GGGCCAUUGUCAAGGUGAUTT against Olfr632,inactive: -0.408
12,CCCAACAAAAUGCGCGAUUTT against Rasa2,inactive: -0.226
13,GGUUUGGCUUAGCUCAUCATT against Mettl24,active: -2.72
14,GGUUCCUGGGAACCUAAGUTT against Med25,active: 2.02
15,GGGACAUGCCUGAAAAAUGTT against Nxnl1,inactive: -0.641
16,GGCCUUCACUGGUUAAAAUTT against Ankrd6,inactive: 0.0966
17,GGUACAUCGCCAUUUGCCATT against Trhr2,inactive: -0.617
18,GGAGAAGAAGUUCUUGCUGTT against Cnnm2,inactive: 0.105
19,GGGCUCCACAUGUUUGCAUTT against Ehmt1,inactive: 0.392
20,GGUUUUAAAGGAGACCCAGTT against C1qa,inactive: 0.646
21,GGGCUUAGCUCACCUUCAUTT against Nrk,inactive: -1.61
22,GGACGAGAAAGCAAAGCAGTT against Mllt10,inactive: -0.211

row,Sequence,z-score
1,GGCUAAUGGACAAAAAAUUTT against Pacrgl,inactive: 0.28
2,GCACUAGUUCUCAAUUUAATT against Antxr1,inactive: -1.33
3,GGAUGAGUUCUUCUUCGGCTT against Desi1,inactive: 0.974
4,GCUUGGACUGGCUGAAGAATT against Ndufa3,inactive: 0.728
5,GGACUAGCCCUCUUUUAUUTT against Cd163l1,inactive: -0.0583
6,GCUAUUGAAGUCUCUUCCGTT against Slc14a1,inactive: 0.515
7,GGAUCAUGGUCAUCACUGUTT against Slc35e1,inactive: -1.5
8,GCUCGUCUAUGCUAUUUCUTT against Fat1,inactive: -0.835
9,GGUCUUAGAUAUUUUAGGCTT against Nampt,inactive: -0.406
10,GGCAGUGACUCUUCAGAAGTT against Ibsp,inactive: 0.87
11,GGCAUUAGCAUCUACCCAGTT against Syt11,inactive: -1.23
12,GCAAUACUAUUCAGUCCAUTT against Gnai3,active: -2.45
13,GGCGGAGAACCAUUGAGGATT against Phf23,inactive: 0.917
14,GGAACCUGAAAAUGUAUGUTT against Cxcl10,inactive: 0.988
15,GGGCUACGACAGAAUCAUCTT against Nxpe4,inactive: -1.02
16,GCGUACGUUCUCCUAACAUTT against Hbs1l,inactive: -1.9
17,GGAUCCUAGGAUUCUUGGUTT against Slfn5,inactive: -1.98
18,GGCACUCAGAAAUAUUCAGTT against Nap1l3,active: 3.84
19,CCUACUGAAACAAUCACACTT against Il20ra,inactive: -0.362
20,CCUUCUUGCUCACAAAGUATT against Kcnt1,inactive: 1.1
21,GGCAUCUCUUUGCUUGAAUTT against Lalba,inactive: -0.86
22,GCAUCUUACGCAUUAAAUCTT against Olfr935,inactive: -1.83

row,Sequence,z-score
1,CGUUUUAUGUGGCAAGCAUTT against Olfr1306,inactive: 0.883
2,GGAGUGUACAUUCUGAUUGTT against Cd9,inactive: -0.677
3,GCAAGUCCUAGUGUCCUGATT against N6amt1,inactive: -0.213
4,GGAUGUCCUUGUUUCCUUCTT against Sult5a1,inactive: -0.879
5,CCUGUUUCAGUCAUUAGUGTT against Slc22a2,active: 2.6
6,GGAAAUAGAUUCAUUGAAGTT against Slc6a14,inactive: 0.342
7,GGCCUUAUGUCUUGUAUAUTT against Pip5k1b,inactive: 0.21
8,GCCUAUGUACUGGUCAAGCTT against Atg2b,inactive: 1.6
9,GGGUAGAAUGACUUUGGCCTT against Cldn2,inactive: 1.19
10,GGAGAUUAACCGGAGAAUGTT against Ptpra,inactive: 1.26
11,GGCUGAGAAGCAAAAACUCTT against Olfr1496,inactive: -0.686
12,GGAGCAGUGCAUUGAGACCTT against Adcy6,active: 2.34
13,GGAGAAGCUGAAAUUGAAATT against Cfi,inactive: -0.204
14,GGGUAACAUGAAGAUCAAUTT against Rnf19a,inactive: 0.488
15,GCACUCCUGAACCAUUCUCTT against Tubb4a,inactive: 0.0643
16,GCACACGUUACAAUUACAGTT against Cxcr2,inactive: -0.231
17,UUUGCUGUCCUUUCUUUCATT against Olfr122,inactive: -1.84
18,GCUUGUAGUGACUGCCUAUTT against Vmn1r30,inactive: -0.296
19,GGCUUCAUUUACUGUAACGTT against Flrt3,inactive: -0.12
20,GCACCUAGCAUAGCAAUGGTT against Slc24a1,inactive: 0.695
21,CCCAGAAAUUUCAACUACATT against Cd300ld3,inactive: 0.0923
22,GCGGGCCAUGACAAUUACUTT against Slc45a1,inactive: 0.566

row,Sequence,z-score
1,GCCUAAGGCGCAUAAAUUCTT against Lca5l,inactive: -0.647
2,GGCAGGUGUUAAGGCUUCATT against Tas2r117,inactive: 0.873
3,GGUAUUCCUGUCUCAGGUCTT against Matn1,inactive: -0.59
4,GGAAGAAGUACUGAGAAGATT against Ctsq,inactive: -0.0505
5,GCGUAGCCCUCAUAAGUCUTT against Ppp1r35,inactive: 0.713
6,GGUAAUUUUCCAGAGCCAUTT against Adad1,inactive: -1.2
7,GGGACAUUAAUAAACCUGATT against Omg,inactive: -0.269
8,CGGUGAUGGUUCAUUUGCATT against Zmiz2,inactive: 1.36
9,GGGAAAAUUUCAAUGAGAGTT against Slc16a10,inactive: 0.341
10,CCAUUUAUGGGUUUUCUCUTT against Taar7b,inactive: 0.12
11,GCAGCAAUUUCGGGUACUCTT against Gfus,inactive: 1.11
12,GCAACUAUUACUUAGCCAUTT against Fgf10,inactive: 0.514
13,GCAUCUCUCCAACCUUCCGTT against Amer2,inactive: 0.46
14,CCAUCUUACUGAAUACAAATT against Iqgap1,inactive: 1.3
15,GGCAUUGCAUUCUCACAUGTT against Gabarapl1,inactive: 0.319
16,GCUGUUUCAAAAGUCAUAUTT against Col11a1,inactive: 1.96
17,CCUUCUCUUUGCUCUAUGUTT against Olfr1284,inactive: -0.647
18,GCCUGUCCUAAACUUGACCTT against Cdh13,inactive: -0.775
19,CGAGCAAAUCUCAUUCAAGTT against Oxgr1,active: 3.07
20,GCUACACGAAGAGGAACUUTT against Prph,inactive: -0.523
21,GGGAGUAGAGAAGAAGGUGTT against Dpf3,inactive: 0.569
22,GGAAGAAAAAACCUUCUGGTT against Ccdc70,inactive: -0.0176

row,Sequence,z-score
1,CCUCUUAUAUGCAUGUGGCTT against Olfr410,active: -2.13
2,GCGACUACUACACAGACGATT against Ext2,inactive: 0.127
3,GGGAUUAUCAUGCUUCAGATT against Tmem87a,inactive: 0.824
4,GGCAUCUUUUGAAACAAUATT against Ubxn8,inactive: -1.04
5,GGUGGUUUUCCUCCUCUGUTT against Kdelr3,inactive: -1.69
6,GGCUGAAGAGGUUUUACGATT against Cyria,inactive: -0.415
7,GGAUCAUGCAAACCAAAGCTT against 4930522H14Rik,inactive: 0.193
8,CGUGCUGGUAACGGAAUUGTT against Ptger2,active: 2.29
9,GAGUGAGAAAGCCAGAGACTT against Acaa1a,inactive: 0.188
10,GGACUGCAUCUUUAAAGAATT against Aasdh,inactive: 1.59
11,GGCAGUGUGUUAGAUUCUUTT against Cts3,active: 2.35
12,CCAAGGUGAGGACUUUCCATT against Erp29,inactive: -0.387
13,CCAAAGAAGUUGACUUUUCTT against Rhpn2,inactive: -0.629
14,CGAUUCCUGGACCAUUGUUTT against Tm6sf1,inactive: 0.264
15,GGAAAGAAGUAUGCCCACATT against Acp5,inactive: -1.63
16,GCAGAAUUGAAUAUUAAGCTT against Upk1b,inactive: 1.27
17,GGAGUAAUGAUAAGCCCUCTT against Tex264,inactive: -0.0637
18,CCCAAUGCUUGGUGCCUUUTT against C1qtnf2,inactive: -0.872
19,GGCGUAGGGCCAUAUCAUUTT against Olfr109,inactive: -0.117

# Quoted at random: 5 entries already listed.
row,Sequence,z-score
13,CCAAAGAAGUUGACUUUUCTT against Rhpn2,inactive: -0.629
4,GGCAUCUUUUGAAACAAUATT against Ubxn8,inactive: -1.04
12,CCAAGGUGAGGACUUUCCATT against Erp29,inactive: -0.387
5,GGUGGUUUUCCUCCUCUGUTT against Kdelr3,inactive: -1.69
19,GGCGUAGGGCCAUAUCAUUTT against Olfr109,inactive: -0.117

# Reference: PubChem BioAssay AID1508600 (Functional Genomics Laboratory (NCATS/FGL), 2020)
